Results from the supplement of paper PMC12889115.
The list shows a part of the results. These are raw signals, not scaled to a control.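 First-pass screen: polymyxin B was added at a level that permeabilizes the Salmonella outer membrane while sparing the inner membrane. DMSO wells, with and without polymyxin B, defined maximum growth. Because plates differed from one another, each plate's data were ranked separately and the compounds with the lowest OD600 were carried forward as hits.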

Test system: Salmonella enterica serovar Typhimurium SL1344
Assay: bacterial growth OD600 after 18 h with compound and polymyxin B; higher = more bacterial growth (less inhibition)
Conditions: 50 µM, Mueller-Hinton broth

SMILES	bacterial growth OD600 (polymyxin B 0.75 µg/mL)	bacterial growth OD600 (polymyxin B 1 µg/mL)
COc1ccc(CCCN2C(=O)O[C@@H]3CN(c4ncccc4Cl)C[C@@H]32)cc1	0.184	
CCN(Cc1ccccc1)C(=O)C1CCCN(C2CCN(C(=O)C3CC3)CC2)C1 (stereo unspecified)		0.877
CCN1CCN(C(=O)CCc2nnc(Cc3ccc(-c4ccccc4)cc3)o2)[C@@H](C)C1=O		0.94
COc1ccc(C(=O)NC2CC2)cc1OC1CCN(Cc2nc3ccccc3[nH]2)CC1		0.929
COCC(C)Nc1ccc(-c2nc(COc3ccccc3)no2)cn1 (stereo unspecified)		0.715
CN1CCC(Oc2ccc(C(=O)NC3CCCC3)cc2Cl)CC1		1.1
Cc1ncc2c(c1CNC(=O)Cc1cccs1)CCN(C(=O)/C=C/c1cc(F)cc(F)c1)C2	0.756	
CCOC(=O)C1(Cc2ccc(F)cc2F)CCCN(Cc2cnc(N(C)C)s2)C1 (stereo unspecified)		0.994
COc1cccc(C(=O)NCC2CCCN(CCCC3CCCC3)C2)c1OC (stereo unspecified)	0.757	
Cc1ccccc1-c1noc(-c2ccc(N(C)CCc3cn[nH]c3)nc2)n1	0.302	
CCC(C)C(=O)NCC1Cc2cc(C)cc(-c3ccccn3)c2O1 (stereo unspecified)	0.934	
Cc1nc2cc(NC(=O)C3CC34CCN(C(=O)c3cccc(Cn5cccn5)c3)CC4)ccc2s1 (stereo unspecified)	0.849	
COc1ccc(CCN2CC(C(=O)NCCN3CCCC3=O)CCC2=O)cc1 (stereo unspecified)		0.913
Cc1n[nH]c(C)c1C(C)NC(=O)c1ccc2oc(-c3cccc(F)c3)nc2c1 (stereo unspecified)	0.617	
O=C(CC(c1cccc(O)c1)c1ccccc1Cl)N[C@H]1CC[C@H](O)CC1 (stereo partly specified)		0.807
COC(=O)c1ccccc1C(=O)N1CCCC(Nc2ccc(F)c(F)c2)C1 (stereo unspecified)		0.746

SMILES	bacterial growth OD600 (polymyxin B 0.75 µg/mL)	bacterial growth OD600 (polymyxin B 1 µg/mL)
CCOc1ccc2nc(N3CCC(N4CCC[C@H]4C(=O)OC)CC3)nc(C)c2c1	0.821	
CCOC(=O)C1(Cc2cccc(OC)c2)CCCN(Cc2cnn(CC)c2C)C1 (stereo unspecified)		0.913
CCCN1CCC(N2CCCCC2C(=O)Nc2ccc(Oc3ccccc3)nc2)CC1 (stereo unspecified)	0.808	
CC(c1ccon1)N(C)C(=O)CC1(c2ccc(-c3ccccc3)cc2)CC(=O)N(C)C1=O (stereo unspecified)	0.003	
CS(=O)(=O)N1CCC(Oc2ccc(C(=O)NC3CCCCCC3)cc2Cl)CC1		0.027
CO[C@H]1[C@H](NC(=O)c2ccncc2)c2ccccc2C12CCN(C(=O)CCc1ccccc1)CC2	0.808	
O=C(c1ccc(-c2ccccc2)[nH]c1=O)N1CCCC(CO)(Cc2ccc(F)cc2)C1 (stereo unspecified)		1
O=C(CCC1(Cc2ccc3ccccc3c2)CCC(=O)N1)NCCc1ccc(C(F)(F)F)cc1 (stereo unspecified)	0.983	
Cc1ccccc1CN1CCN(Cc2ccccc2F)C(CCO)C1 (stereo unspecified)		1.16
CC[C@@]1(C(=O)OC)C[C@H](C(=O)NC(C)(C)CO)[C@H](c2ccc(OC)cc2)N1C	0.819	
CC1CCN(C(=O)CC2(c3ccc(-c4ccccc4)cc3)CC(=O)N(C)C2=O)CC1 (stereo unspecified)	0.003	
CCOC(=O)C1CCCN(C(=O)c2cc(COc3ccccc3F)[nH]n2)C1 (stereo unspecified)	0.763	
O=C(Nc1cccc(-n2cccn2)c1)C1CCCN1C1CCCCC1 (stereo unspecified)		0.886
O=C1CC(NS(=O)(=O)N2CCOCC2)CN1CCc1ccccc1 (stereo unspecified)		0.93
COc1ccc(F)c(CC2(CCC(=O)NCC3CCCN(c4ncccn4)C3)CCC(=O)N2)c1 (stereo unspecified)	0.852	

Looked up above.
Value for `CCOC(=O)C1(Cc2cccc(OC)c2)CCCN(Cc2cnn(CC)c2C)C1` (stereo unspecified) under bacterial growth OD600 (polymyxin B 1 µg/mL): 0.913
Value for `CS(=O)(=O)N1CCC(Oc2ccc(C(=O)NC3CCCCCC3)cc2Cl)CC1` under bacterial growth OD600 (polymyxin B 1 µg/mL): 0.027
